Experimental data: PubChem BioAssay AID504744 (Drosophila RNAi Screening Center, 2011)

Screen: 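Uncover factors, including feedback loops, that control dAkt activation in fly cells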 (primary screen)
System: Drosophila Kc167 cells
Knock-down reagent: long dsRNA against Drosophila genes, 250 ng dsRNA per well of a 384-well plate
Timing: 3 days of knock-down, then overnight serum-free starvation before stimulation
Conditions: bovine insulin at 387 nM for 10 minutes after 12 h without serum
Measurement: 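In-cell antibody fluorescence for phospho-dAkt in each well over DNA-dye signal, with log2 residuals expressed as z-scores adjusted for cell count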
Hit rule: 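Under insulin, a gene counts as a hit if the average z-score of two replicates lies above 2.5 or below -2.5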
In all, the deposit lists about 23,000 reagents; this is a random part of those that have a named target and a result. Of all reagents, 98 (0.43%) got an active call. 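Only hit calls are given; the phospho-dAkt signals, z-scores and hit direction were not deposited.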 Names joined by + are all predicted targets of the reagent.

target	amplicon	Call
CG4301	DRSC19886	inactive
Frq1	DRSC19961	inactive
CR33318	DRSC22949	inactive
CG14105	DRSC10107	inactive
dao	DRSC01960	inactive
CG5342	DRSC15776	inactive
ro	DRSC17046	inactive
CG4650	DRSC02767	inactive
Gr59d	DRSC22553	inactive
CG5281	DRSC15761	inactive
CG17207	DRSC15198	inactive
ham	DRSC02070	active
ham	DRSC02512	inactive
ham	DRSC02513	inactive
CG32523	DRSC20510	inactive
TwdlQ	DRSC14745	inactive
CG9360	DRSC20180	inactive
Sec24AB	DRSC06478	inactive
CG7059	DRSC16187	inactive
Hsp60A	DRSC20254	inactive
CG30148	DRSC06391	inactive
CG15572	DRSC18060	inactive
Vhl	DRSC07716	inactive
CG1582	DRSC19732	inactive
Ser6	DRSC20574	inactive
CG32199	DRSC09990	inactive
CG14881	DRSC15005	inactive
CG32537	DRSC20073	inactive
CG34417	DRSC17467	inactive
CG34417	DRSC18332	inactive
CG34417	DRSC18333	inactive
CG16758	DRSC07984	inactive
CG16758	DRSC08492	inactive
Rh4	DRSC11268	inactive
Cpr72Ea	DRSC10451	inactive
Sema1b	DRSC07550	inactive
borr	DRSC02749	inactive
CG7006	DRSC16169	inactive
CG6674	DRSC10692	inactive
CG14367	DRSC14829	inactive
CheA84a	DRSC12669	inactive
CG16865	DRSC01904	inactive
Atac1	DRSC03155	inactive
Prosalpha4	DRSC20271	inactive
Not3	DRSC04908	inactive
CG34168	DRSC01938	inactive
Vajk2	DRSC02540	inactive
CG8568	DRSC20113	inactive
MED24	DRSC10944	inactive
CG6220	DRSC06969	inactive
CG7798	DRSC07047	inactive
CG32576 + UQCR-14	DRSC19870	inactive
Cse1	DRSC03287	inactive
Rb97D	DRSC16815	inactive
mtTFB2	DRSC15519	inactive
CR18275 + CR18166 + CG32817	DRSC17249	inactive
CG30356	DRSC05119	inactive
pont	DRSC17029	inactive
nAChRalpha2	DRSC17009	inactive
Ctr1C	DRSC15089	inactive
mRpL21	DRSC11100	inactive
18w	DRSC05029	inactive
CDase	DRSC14932	inactive
128up	DRSC05027	inactive
CG7692	DRSC10902	inactive
CG32069 + Blos2	DRSC10621	inactive
Tdrd3	DRSC10016	inactive
CG12347	DRSC14502	inactive
betaTub97EF	DRSC15666	inactive
betaTub97EF	DRSC15667	inactive
betaTub97EF	DRSC15668	inactive
Fancl	DRSC14550	inactive
GluRS-m	DRSC10431	inactive
Fkbp14	DRSC04615	inactive
dome	DRSC19583	inactive
ringer	DRSC10455	inactive
CG42372 + CG30100	DRSC05602	inactive
CG15919	DRSC06594	inactive
Bub3	DRSC14168	inactive
png	DRSC18582	inactive
CG14624	DRSC18634	inactive
Dyro	DRSC10598	inactive
CG30192	DRSC03977	inactive
Jheh2	DRSC06530	inactive
CG10912	DRSC06009	inactive
SPE	DRSC15135	inactive
Grp170	DRSC18524	inactive
CG11263	DRSC09832	inactive
flap	DRSC03918	inactive
flap	DRSC04087	inactive
RIOK2	DRSC14413	inactive
CG7737	DRSC07033	inactive
CG14456	DRSC11713	inactive
CG8736	DRSC07255	inactive
Nil	DRSC15953	inactive
CG10336	DRSC02037	inactive
CG8728	DRSC07251	inactive
CG14718	DRSC14941	inactive
CG42720 (retired record)	DRSC22549	inactive
Trpgamma	DRSC03626	inactive
grp + CG31782 (retired record)	DRSC03541	inactive
alrm	DRSC14436	inactive
unc-45	DRSC15449	inactive
natalisin	DRSC14966	inactive
natalisin	DRSC14967	inactive
Sce	DRSC16825	inactive
CG34012	DRSC09089	inactive
scf	DRSC08735	inactive
seq	DRSC06863	inactive
CAHbeta	DRSC14449	inactive
shf	DRSC18283	inactive
Pos	DRSC15415	inactive
Ctl1	DRSC08303	inactive
Wdr24	DRSC14151	inactive
CG3277	DRSC00588	inactive
CG12116	DRSC17812	inactive
GATAe	DRSC14223	inactive
Alg-2	DRSC07799	inactive
CG12288	DRSC02155	inactive
CG32263	DRSC22431	inactive
CG16976 (retired record)	DRSC08499	inactive
CG1628	DRSC18109	inactive
CG32054	DRSC10684	inactive
CG31524	DRSC22014	inactive
rho	DRSC08734	inactive
Pitslre	DRSC11874	inactive
CG42531	DRSC05318	inactive
CtsL3	DRSC12171	inactive
Klp59D	DRSC04118	inactive
Fkbp39	DRSC16667	inactive
Pp2B-14D	DRSC20270	inactive
CG34458	DRSC06925	inactive
gus	DRSC04885	inactive
gus	DRSC04886	inactive
CheB42c	DRSC04972	inactive
Vps36	DRSC09785	inactive
CG15024	DRSC08478	inactive
CG7156	DRSC16207	inactive
ncm	DRSC02179	inactive
Phb1	DRSC03563	inactive
ND-23	DRSC15526	inactive
CG15160	DRSC02461	inactive
CG34249 (retired record)	DRSC09431	inactive
CG31820	DRSC21318	inactive
CG6462	DRSC10641	inactive
ox	DRSC07520	inactive
CG6966	DRSC16156	inactive
CG10814	DRSC06004	inactive
Ugt302E1	DRSC15635	inactive
CG5758	DRSC02889	inactive
CG5758	DRSC02890	inactive
Nepl6	DRSC03242	inactive
CG4377	DRSC04467	inactive
lncRNA:CR42646	DRSC04759	inactive
Teh1	DRSC14544	inactive
CG32391	DRSC08865	inactive
CG13001	DRSC19520	inactive
CG13001	DRSC22443	inactive
CG5539	DRSC04510	inactive
CG32706 + CG6999	DRSC18412	inactive
Archease	DRSC16025	inactive
CG10621	DRSC02078	inactive
Rpt6R	DRSC15431	inactive
Grl36b	DRSC01627	inactive
CG17048	DRSC06649	inactive
CG9517 (retired record)	DRSC20192	inactive
CG9517 (retired record)	DRSC20193	inactive
CG8840	DRSC00713	inactive
hoka	DRSC08313	inactive
GstD11	DRSC15251	inactive
Six4	DRSC11881	inactive
CG5112	DRSC15718	inactive
beta4GalNAcTB	DRSC14869	inactive
CG1317	DRSC08305	inactive
CG15927	DRSC19742	inactive
JMJD6	DRSC15787	inactive
CG11170	DRSC04090	inactive
CG9095	DRSC20150	inactive
Tat	DRSC19602	inactive
CG9018	DRSC08618	inactive
aph-1	DRSC00547	inactive
CG32152	DRSC22906	inactive
bora	DRSC10744	inactive
CG4424	DRSC15576	inactive
CG15203	DRSC19650	inactive
CG13972	DRSC14715	inactive
Mdh1 (retired record)	DRSC02846	inactive
ARY (retired record)	DRSC20867	inactive
PHDP	DRSC04635	inactive
CG4119	DRSC17741	inactive
CG18180	DRSC10304	inactive
DIP-iota	DRSC02140	inactive
LManII	DRSC01986	inactive
Sfxn2	DRSC10718	inactive
CG4757	DRSC14130	inactive
PIG-Q	DRSC19138	inactive
CG13698	DRSC10047	inactive
Snap29	DRSC04721	inactive
sun	DRSC20140	inactive
Mtk	DRSC07475	inactive

Targets above whose gene name begins with B or b:
target	amplicon	Call
borr	DRSC02749	inactive
betaTub97EF	DRSC15666	inactive
betaTub97EF	DRSC15667	inactive
betaTub97EF	DRSC15668	inactive
Bub3	DRSC14168	inactive
beta4GalNAcTB	DRSC14869	inactive
bora	DRSC10744	inactive
